Measurements from US20240016735A1, “IONIC LIQUIDS FOR DRUG DELIVERY” (PRESIDENT AND FELLOWS OF HARVARD COLLEGE, priority 2019, published 2024).

System: anti-human TNF-α mouse IgG1 (clone MAb11)
Conditions: 1 h incubation, 48 h dialysis at room temperature; ELISA

Structure (SMILES) | CGLY concentration up to which impact on binding capability of TNF-α IgG1 is negligible
C[N+](C)(C)CCO.O=C([O-])CO [CGLY2:1, choline-glycolate] | up to 60 % v/v
C[N+](C)(C)CCO.O=C([O-])CO [CGLY1:1, choline-glycolate] | ≤ 70 % v/v
